Reference: publication PMC10708393, “The Fabrication of a Probe-Integrated Electrochemiluminescence Aptasensor Based on Double-Layered Nanochannel Array with Opposite Charges for the Sensitive Determination of C-Reactive Protein”
For at least one entry, the source does not settle the construct or the ends of the probe. Negatives hold for the conditions tested.

Legend:
serum amyloid A (SAA) = assay: electrochemiluminescence aptasensor; conditions: selectivity test, no significant ECL decrease; 5'-NH2; CRP incubation 4 °C, 1 h on BSA-blocked aptamer electrode; wash 0.01 M PBS pH 7.4; ECL read in 3 mM TPA, 0.01 M PBS pH 7.4, room temperature; commercial protein; single-stranded DNA
[1] = test system: carbohydrate antigen 19-9 (CA19-9); assay: electrochemiluminescence aptasensor; conditions: selectivity test, no significant ECL decrease; 5'-NH2; CRP incubation 4 °C, 1 h on BSA-blocked aptamer electrode; wash 0.01 M PBS pH 7.4; ECL read in 3 mM TPA, 0.01 M PBS pH 7.4, room temperature; commercial protein; single-stranded DNA

CGAAGGGGATTCGAGGGGTGATTGCGTGCTCCATTTGGTG [CRP aptamer]
binding result (serum amyloid A (SAA)): no binding
binding result [1]: no binding
